Results taken from US10874103B2, “Antibacterial composition comprising an acetal or a long-chain alkyl hexitane ether” (TEREOS STARCH & SWEETENERS BELGIUM, priority 2014, dated 2020).
Where two headings read alike, the source gives them in different places. Some entries share one result that the patent states for a list of compounds.

Tested on: L. monocytogenes (CIP 103575), E. faecalis (ATCC® 29212™) and S. aureus (ATCC® 292213™)
Assay: MIC microdilution, statements for all three Gram-positive strains together
Assay type: cell-based
Procedure: The bacteriostatic properties of the derivatives are evaluated by measuring their minimum inhibitory concentration (MIC) on the bacteria tested. Such a measurement is made using the 96-well microplate microdilution method according to the conditions defined below.
The minimum inhibitory concentrations (MIC) are tested on Gram-positive bacterial strains according to the recommendations of the “Clinical Laboratory Standards Institute” (Clinical-Laboratory-Standards-Institute, 6th ed. Approved standard M100-S17. CLSI, Wayne, Pa., 2007).
The Gram-positive bacteria studied are as follows: L. monocytogenes (CIP 103575), E. faecalis (ATCC® 29212™) and S. aureus (ATCC® 292213™).
The cultures studied, freshly isolated (after incubation on a blood agar at 37° C. for 18 h), are taken up in sterile water (10 mL) until a 0.5 McFarland (Mc) suspension i.e. 1 to 2×10^8 CFU (bacteria)/cm^3 is obtained. The bacterial suspension was then diluted to obtain a final concentration of 5×10^5 CFU/cm^3.
Each well contains an identical quantity of Mueller-Hinton medium (a rich medium for bacterial culture) and bacteria with final 5×10^5 CFU/cm^3.
The test compounds of interest are solubilized in 2.5% m of ethanol before being diluted to different concentrations two by two.
On the multiwell plate, a first series has been planned comprising the culture medium without the test compound of interest. […]

Substance	MIC / inhibitory concentration on the bacterial strains studied (listed as sorbitan C12 ether)	MIC / inhibitory concentration on the bacterial strains studied
Dodecyl-1,4-d-sorbitan [Example 2e]	below 12 mM	
5,6-O-Dodecylidene-1,4-D-sorbitan 1e and 1e′ and 3,5-O-dodecylidene-1,4-D-sorbitan 1e′ and 1e′″ [Example 1e]		below 12 mM
